PubChem BioAssay AID504834 (National Center for Advancing Translational Sciences (NCATS), 2011)
The whole screen tested about 320,000 compounds, of which about 22,000 (6.9%) were called active. The shares of active, inactive and inconclusive entries below differ from those in the screen. Calls come from the whole dose curve; as a rule, active = well fitted inhibition curve with a large enough effect; inconclusive = small, poorly fitted or top-dose-only effect, or another doubt; inactive = no such curve, though single readings can be large or run the other way. Potencies beside an inconclusive call are fits to weak or partial responses and may not hold up.

Assay: Primary qHTS for delayed death inhibitors of the malarial parasite plastid, 96 hour incubation
Conditions: P. falciparum luciferase reporter growth; series mostly up to 28.7 µM
Procedure, shortened: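 Delayed-death screen, second-generation endpoint: infected erythrocytes, 2% hematocrit, 0.05% parasitemia final; 96 hours at 37 C, 5% CO2; luciferase detection reagent; luminescence decrease equals reduced growth.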
Potency is the fitted concentration of half-maximal effect.

SMILES	Potency
Cc1ccc(NC(=O)CC2SC3=NCCN3C2=O)cc1 (configuration not stated)	inconclusive: 0.0465 µM [inhibitor, full curve]
COc1ccccc1C(=O)NCC(=O)OC(C)C(=O)N(C)C1CCCCC1 (configuration not stated)	inconclusive: 10.4 µM [inhibitor, partial curve, poor fit]
Oc1ccc(C=Nc2cccc3ncccc23)c(O)c1	inconclusive: 0.329 µM [inhibitor, full curve, poor fit]
CCn1cc(CN2CCN(Cc3ccccc3)C(CCO)C2)c2ccccc21 (configuration not stated)	inconclusive: 10.4 µM [inhibitor, single point]
Brc1ccc(-c2csc(N3CCCCC3)n2)cc1	inconclusive: 13.1 µM [activator, partial curve]
CCN(CC)S(=O)(=O)c1ccc(N2CCOCC2)c(NC(=O)c2ccc(NC(C)=O)cc2)c1	inconclusive: 10.4 µM [inhibitor, single point]
CCNc1nc(NC(C)C)nc(Oc2ccc(/C=N/O)cc2)n1	inconclusive: 18.5 µM [inhibitor, single point]
COc1ccc(OC)c(S(=O)(=O)NC2CC(=O)N(c3cccc(F)c3)C2)c1 (configuration not stated)	inactive
CCCCC(=O)N/N=C/c1c(O)n(CCCC)c(=S)[nH]c1=O	inconclusive: 0.415 µM [inhibitor, full curve, poor fit]
COC(=O)c1ccc(C(=O)OC)c(NC(=O)CN(C)Cc2ccccc2)c1	inconclusive: 18.5 µM [inhibitor, single point]
Cc1cc(O)c(C(C)C)cc1NC(=O)c1cccc(Cl)c1	inconclusive: 0.0329 µM [inhibitor, full curve, poor fit]
COc1ccc(-c2cc(NCc3ccccn3)n3ncnc3n2)cc1	inactive
CN1/C(=C\P(=O)(N(C)C)N(C)C)C(C)(C)c2ccccc21	inconclusive: 18.5 µM [inhibitor, single point]
CCCCNc1c([N+](=O)[O-])cc(C)cc1[N+](=O)[O-]	inconclusive: 4.15 µM [inhibitor, partial curve, poor fit]
CC(=O)Nc1ccc(NC(=O)C(C)OC(=O)CCCN2C(=O)c3cccc4cccc(c34)C2=O)cc1 (configuration not stated)	inactive
N#Cc1cc(NC(=O)c2ccc(F)cc2)c(=O)n2c1[nH]c1ccccc12	inconclusive: 1.31 µM [inhibitor, partial curve, poor fit]
CCOC(=O)c1c(C)[nH]c(C)c1C(=O)COc1ncnc2cc([N+](=O)[O-])ccc12	inactive
O=c1[nH]c2ccccc2nc1/C=C(\O)C1CC1	inconclusive: 18.5 µM [inhibitor, single point]
CSC1=NP(=S)(SC)N(C)c2nc3n(c21)CCC3 (configuration not stated)	inconclusive: 18.5 µM [inhibitor, single point]
CCc1cc(=O)oc2cc(OCC(=O)N3CCC[C@H]3C(=O)O)ccc12	inactive
CCN1C(=O)/C(=C2\SC(N3CCOCC3)=NC2=O)c2ccccc21	inactive

Exported in markdown: two of the compounds above

| SMILES | Potency |
| --- | --- |
| Cc1ccc(NC(=O)CC2SC3=NCCN3C2=O)cc1 (configuration not stated) | inconclusive: 0.0465 µM [inhibitor, full curve] |
| CCNc1nc(NC(C)C)nc(Oc2ccc(/C=N/O)cc2)n1 | inconclusive: 18.5 µM [inhibitor, single point] |

Additional structures.

SMILES	Potency
S=C(Nc1ccc(Cl)cc1Cl)N1CCCCC1	inconclusive: 11.7 µM [inhibitor, single point]
Cc1cc(C(=O)CN2C(=O)NC3(CCCC3)C2=O)c(C)n1-c1ccc2c(c1)OCO2	inconclusive: 11.7 µM [inhibitor, single point]
CCN(CCNC(=O)CS(=O)(=O)Cc1nc(-c2cccc(OC)c2)oc1C)c1ccccc1	inconclusive: 1.47 µM [inhibitor, full curve, poor fit]
Brc1ccc(OCc2ccccc2)c(CNCc2ccncc2)c1	active: 0.415 µM
Cc1ccc(NC(=O)CSc2nnc(-c3cnccn3)n2-c2ccccc2)cc1	inconclusive: 0.117 µM [inhibitor, full curve, poor fit]
Cc1ccc(C)c(N2CCN(C(=O)CCC(=O)Nc3nnc(CC(C)C)s3)CC2)c1	inconclusive: 18.5 µM [inhibitor, single point]
COc1ccc(CNC(=O)c2cc(S(=O)(=O)N3CCCC3)cn2C)cc1	inconclusive: 18.5 µM [inhibitor, single point]
Cc1onc(-c2ccccc2)c1C(=O)OCC(=O)N1CCC(C)CC1	inactive
CC(=O)Oc1cc(OC(C)=O)c2c(C)cc(=O)oc2c1	inactive
Cc1ccc(S(=O)(=O)NCCC(=O)Nc2ccc3c(c2)OCO3)cc1	inconclusive: 10.4 µM [inhibitor, partial curve, poor fit]
Nc1c([N+](=O)[O-])cnnc1-c1ccccc1	inconclusive: 1.47 µM [inhibitor, full curve]
N#Cc1ccc(NC(=O)Cn2c3[n+](c4ccc(C(F)(F)F)cc42)CCCCC3)cc1	active: 4.65 µM
COc1ccc(/C=N/NC(=O)CCn2cnc(-c3ccccc3)c2-c2ccccc2)cc1OC	inconclusive: 10.4 µM [inhibitor, single point]
Cc1ccc(C(=O)Nc2nnc(C3=COCCO3)o2)cc1C	inconclusive: 13.1 µM [inhibitor, single point]
COc1ccc(OC)c(C(C[N+](=O)[O-])c2c(C)cc3ccccn23)c1 (configuration not stated)	inconclusive: 3.29 µM [inhibitor, partial curve, poor fit]
CCCN(CC(=O)Nc1ccc(F)c(F)c1F)C(=O)CCc1nc2ccccc2c(=O)[nH]1	inconclusive: 16.5 µM [inhibitor, single point]
CCOC(=O)c1ccc(NC(=O)N2C[C@@H]3C[C@@H](C2)c2cccc(=O)n2C3)cc1	inconclusive: 2.94 µM [inhibitor, single point]
O=C(CCNc1n[nH]c(=O)[nH]c1=O)N/N=C/c1ccc(C(F)(F)F)cc1	inactive
COc1ccc2[nH]c(C)c(CCNC(=S)Nc3cccc(C)c3)c2c1	inconclusive: 5.22 µM [inhibitor, partial curve]
COc1ccc(S(=O)(=O)N2CCOCC2)cc1NC(=O)CSc1ccc(F)cc1	inconclusive: 2.94 µM [inhibitor, partial curve]
CCC(=O)c1ccc(OCC(O)Cn2c(C)nc3ccccc32)cc1 (configuration not stated)	inactive

For convenience, part of the list above.
SMILES	Potency
Cc1ccc(S(=O)(=O)NCCC(=O)Nc2ccc3c(c2)OCO3)cc1	inconclusive: 10.4 µM [inhibitor, partial curve, poor fit]
Nc1c([N+](=O)[O-])cnnc1-c1ccccc1	inconclusive: 1.47 µM [inhibitor, full curve]
